The values below come from article PMC3000341.

Chains of the proteins cited; added tags and fusions are not shown. Lines headed by an entry give the natural chain unless they say otherwise; changes in a name come on top. A line that says so, or that is headed by a name, gives the form on record, which may keep a tag or linker. Residues count along the entry.
UniProt P48356, residues 22-1162: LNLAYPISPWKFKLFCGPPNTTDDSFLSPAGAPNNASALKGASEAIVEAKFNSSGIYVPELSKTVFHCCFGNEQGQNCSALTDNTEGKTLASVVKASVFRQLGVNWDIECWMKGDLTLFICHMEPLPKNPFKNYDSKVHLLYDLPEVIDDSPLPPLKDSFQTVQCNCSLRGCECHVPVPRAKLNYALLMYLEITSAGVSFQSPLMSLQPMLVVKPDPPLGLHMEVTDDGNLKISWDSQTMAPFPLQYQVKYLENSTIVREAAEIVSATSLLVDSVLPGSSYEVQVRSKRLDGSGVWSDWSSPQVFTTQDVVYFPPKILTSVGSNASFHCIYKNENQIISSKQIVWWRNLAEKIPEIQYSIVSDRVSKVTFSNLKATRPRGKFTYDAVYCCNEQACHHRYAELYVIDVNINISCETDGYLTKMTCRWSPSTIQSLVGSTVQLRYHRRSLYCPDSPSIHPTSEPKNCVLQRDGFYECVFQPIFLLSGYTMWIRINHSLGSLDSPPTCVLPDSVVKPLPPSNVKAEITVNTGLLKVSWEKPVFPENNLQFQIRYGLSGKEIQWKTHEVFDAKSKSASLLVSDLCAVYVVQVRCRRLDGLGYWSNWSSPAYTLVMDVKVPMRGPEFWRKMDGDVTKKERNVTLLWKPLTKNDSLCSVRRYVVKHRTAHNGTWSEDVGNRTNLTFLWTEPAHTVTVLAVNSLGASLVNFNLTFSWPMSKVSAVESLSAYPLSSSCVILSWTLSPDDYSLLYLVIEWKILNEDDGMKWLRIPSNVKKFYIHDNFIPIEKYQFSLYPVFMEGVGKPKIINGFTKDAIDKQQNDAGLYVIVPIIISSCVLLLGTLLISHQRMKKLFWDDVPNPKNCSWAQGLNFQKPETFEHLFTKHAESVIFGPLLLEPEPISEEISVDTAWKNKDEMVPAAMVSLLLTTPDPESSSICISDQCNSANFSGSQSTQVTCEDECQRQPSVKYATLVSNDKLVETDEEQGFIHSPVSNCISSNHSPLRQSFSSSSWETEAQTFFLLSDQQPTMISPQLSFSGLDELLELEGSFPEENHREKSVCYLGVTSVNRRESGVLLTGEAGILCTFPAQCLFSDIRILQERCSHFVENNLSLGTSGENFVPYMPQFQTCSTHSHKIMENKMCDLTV
wild-type leptin (P41160, residues 22-167): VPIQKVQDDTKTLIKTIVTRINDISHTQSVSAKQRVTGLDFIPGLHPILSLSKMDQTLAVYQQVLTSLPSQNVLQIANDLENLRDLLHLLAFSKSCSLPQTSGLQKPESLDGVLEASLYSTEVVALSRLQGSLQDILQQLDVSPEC
mutant V145E leptin (P41160, form named): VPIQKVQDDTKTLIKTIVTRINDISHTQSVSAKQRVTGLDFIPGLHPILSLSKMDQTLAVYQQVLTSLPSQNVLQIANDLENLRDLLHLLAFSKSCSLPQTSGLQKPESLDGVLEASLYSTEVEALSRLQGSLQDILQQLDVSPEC

The assay addresses leptin receptor (mouse (endogenous in mid brain)) (UniProt P48356). Briefly: co-IP; mid brain homogenised in RIPA buffer with protease inhibitors; 500 µg total protein immunoprecipitated with 10 µg anti-leptin receptor antibody (ab5593) pre-coupled to protein A magnetic beads; immunoblot with anti-leptin (ab3583) or anti-leptin receptor antibody; each band is tissue extract mixed from three mice.

These are yes or no findings as the source states them, for the method shown. Binding seen in cells or lysates may run through a third protein. Some entries that bind do so weakly or less than the wild type.

As to “mutant V145E leptin (from UniProt P41160 22-167) (ligand)”, the binding entry is on record as “binds”.
In the case of “wild-type leptin (from UniProt P41160 22-167) (ligand)”, the binding entry is recorded as “binds”.
